Laboratory results taken from article PMC12361455.
These are yes or no findings as the source states them, for the method shown. Binding seen in cells or lysates may run through a third protein. Some results given as binding are weak or reduced against the parent protein; the word gives no strength.

Tests used:
[1] = molecular target: T1, FGF receptor 4 (FGFR4) (mouse (endogenous in BMDMs and RAW264.7)), Q03142; experiment: co-IP; lysates of mouse BMDMs and RAW264.7 macrophages in IP lysis buffer; anti-FGFR4 antibody or IgG overnight at 4 °C, Protein A/G agarose beads 4 h at 4 °C; western blot of the precipitate; conditions: remark: other sources report otherwise
T1 chain: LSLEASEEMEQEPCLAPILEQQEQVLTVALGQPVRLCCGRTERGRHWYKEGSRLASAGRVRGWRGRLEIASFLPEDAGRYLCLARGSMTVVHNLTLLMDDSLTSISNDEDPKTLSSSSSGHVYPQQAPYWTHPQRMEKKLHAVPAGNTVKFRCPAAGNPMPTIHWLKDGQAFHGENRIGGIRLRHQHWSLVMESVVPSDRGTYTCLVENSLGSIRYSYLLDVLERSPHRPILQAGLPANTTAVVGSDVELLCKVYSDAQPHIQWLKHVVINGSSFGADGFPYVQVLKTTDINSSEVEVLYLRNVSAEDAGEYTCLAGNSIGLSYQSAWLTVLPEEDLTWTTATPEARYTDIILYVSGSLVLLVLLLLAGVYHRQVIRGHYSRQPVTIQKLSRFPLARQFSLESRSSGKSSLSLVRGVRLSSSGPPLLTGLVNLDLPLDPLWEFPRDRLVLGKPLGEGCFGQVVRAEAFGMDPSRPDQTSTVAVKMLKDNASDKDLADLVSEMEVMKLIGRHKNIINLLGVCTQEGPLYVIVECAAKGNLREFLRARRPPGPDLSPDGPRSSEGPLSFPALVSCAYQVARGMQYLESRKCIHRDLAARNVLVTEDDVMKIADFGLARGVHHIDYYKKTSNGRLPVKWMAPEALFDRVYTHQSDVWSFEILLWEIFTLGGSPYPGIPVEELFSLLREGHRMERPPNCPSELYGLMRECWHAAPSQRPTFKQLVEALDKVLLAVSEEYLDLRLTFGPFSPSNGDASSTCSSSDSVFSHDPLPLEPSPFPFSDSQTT

[2] = molecular target: T1, FGF receptor 4 (FGFR4) (mouse …); experiment: co-IP; lysates of RAW264.7 macrophages overexpressing NF2-WT or NF2-Mut, treated with LPS + rFGF15; anti-FGFR4 antibody or IgG overnight at 4 °C, Protein A/G agarose beads 4 h at 4 °C; western blot of the precipitate; conditions: remark: other sources report otherwise

B1: neurofibromin 2 (NF2/Merlin), P46662 1-596 (protein)
chain: MAGAIASRMSFSSLKRKQPKTFTVRIVTMDAEMEFNCEMKWKGKDLFDLVCRTLGLRETWFFGLQYTIKDTVAWLKMDKKVLDHDVSKEEPVTFHFLAKFYPENAEEELVQEITQHLFFLQVKKQILDEKVYCPPEASVLLASYAVQAKYGDYDPSVHKRGFLAQEELLPKRVINLYQMTPEMWEERITAWYAEHRGRARDEAEMEYLKIAQDLEMYGVNYFTIRNKKGTELLLGVDALGLHIYDPENRLTPKISFPWNEIRNISYSDKEFTIKPLDKKIDVFKFNSSKLRVNKLILQLCIGNHDLFMRRRKADSLEVQQMKAQAREEKARKQMERQRLAREKQMREEAERTRDELERRLLQMKEEATMANEALMRSEETADLLAEKAQITEEEAKLLAQKAAEAEQEMQRIKATAIRTEEEKRLMEQKVLEAEVLALKMAEESERRAKEADQLKQDLQEAREAERRAKQKLLEIATKPTYPPMNPIPPPLPPDIPSFDIIADSLSFDFKDTDMKRLSMEIEKEKVEYMEKSKHLQEQLNELKTEIEALKLKERETALDVLHSESSDRGGPSSKHNTIKKLTLQSAKSRVAFFEEL
B1 was tested. Which binding [1] did it give?
The binding was “binds”.

B2: wild-type NF2 (NF2-WT), P46662 1-596 (protein)
chain: B1 chain
B2 was tested. Which binding [2] did it give?
The binding was “binds”.
